Measurements: US5739276A (priority 1996, dated 1998)
Part of at least one peptide drawing is inferred or uncertain, most often the ends. Where a SMILES comes first, the peptide text is derived from it. Bridges are numbered along the chain shown (N, C = ends).

Key:
sodium channels = assay type: cell-based, Aplysia californica or Aplysia aculifera
calcium currents = assay type: cell-based, Aplysia californica or Aplysia aculifera

## CC[C@H](C)[C@@H]1NC(=O)[C@@H]2CCCN2C(=O)[C@H](CC(=O)O)NC(=O)[C@@H]2CSSC[C@@H]3NC(=O)[C@H](CC(N)=O)NC(=O)[C@H](Cc4c[nH]c5ccccc45)NC(=O)CNC(=O)[C@H](CCCNC(=N)N)NC(=O)[C@H](CSSC[C@H](NC(=O)[C@@H]4CCCN4C(=O)[C@H](CCCCN)NC(=O)[C@@H](N)C(C)C)C(=O)N[C@@H](CCCNC(=N)N)C(=O)N[C@@H](CCCCN)C(=O)N[C@@H](CCC(=O)O)C(=O)NCC(=O)N[C@@H](CCC(N)=O)C(=O)N[C@@H](CC(C)C)C(=O)N2)NC(=O)[C@H](CSSC[C@@H](C(=O)N[C@H](C(=O)O)C(C)C)NC(=O)[C@H](Cc2ccccc2)NC(=O)[C@H](CC(C)C)NC(=O)[C@H](C(C)C)NC3=O)NC(=O)[C@H](CC(N)=O)NC(=O)[C@H](CCC(N)=O)NC(=O)[C@H](Cc2ccccc2)NC1=O [δ-conotoxin GmVIA] (H-VKPCRKEGQLCDPIFQNCCRGWNCVLFCV-OH; disulfide 4-19, 11-24, 18-28)
Sodium channels
  V0.5 half-inactivating voltage, steady-state inactivation: -21 mV
  amplitude of the slowly inactivating sodium current in two-pulse protocol: almost constant independent of the time interval
Calcium currents
  reduction in the amplitude of the calcium current during the experiment: 10-20%
